Test results published in the supplement of paper PMC9254222.
Over roughly 1,100 compounds, “Wnt reporter firefly/Renilla luciferase ratio relative to plate median” has its median near 1.1; the highest 2% begin near 1.6. The entries are a selection whose mix differs from that of the whole data set.

Tested on: HEK293T (UBE3A T485A transfected, BAR Wnt reporter)
Test: Wnt reporter firefly/Renilla luciferase ratio relative to plate median (fold (linear ratio)); higher = more Wnt/beta-catenin reporter activation
Conditions: 24 h
Outline: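 Wnt activity (firefly/Renilla ratio) and cell health (raw Renilla) were read with Dual-Glo luciferase and median-centred plate by plate. HEK293T cells, at 4500 cells/well in white 384-well plates with DMEM plus 10% FBS at 37°C and 5% CO2, carried a transfected BAR firefly luciferase Wnt reporter, TK-Renilla and an expression plasmid. The chemicals were applied by robot at 0.01–100 uM for 24 h, beginning four hours after transfection, and results were averaged across four biological replicates.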

| Structure (SMILES) | Wnt reporter firefly/Renilla luciferase ratio (concentration: 0.01 uM) | Wnt reporter firefly/Renilla luciferase ratio (concentration: 0.1 uM) | Wnt reporter firefly/Renilla luciferase ratio (concentration: 1 uM) | Wnt reporter firefly/Renilla luciferase ratio (concentration: 10 uM) | Wnt reporter firefly/Renilla luciferase ratio (concentration: 100 uM) |
| --- | --- | --- | --- | --- | --- |
| CN/C(=N\[N+](=O)[O-])NCc1cnc(Cl)s1 [Clothianidin] | 1.34 | 1.2 | 0.922 | 0.951 | 1.07 |
| CC(C)(C)C(=O)C(Oc1ccc(Cl)cc1)n1cncn1 (configuration not stated) [Triadimefon] | 1 | 1.34 | 1.3 | 1.2 | 0.483 |
| Oc1c(Cl)cc(Cl)cc1Cl [2,4,6-Trichlorophenol] | – | 0.821 | 1.09 | 1.37 | 0.524 |
| O=C(O)C(F)(F)C(F)(F)C(F)(F)C(F)(F)C(F)(F)F | – | 1.16 | 1.48 | 1.38 | 2.14 |
| CO[C@@H]1[C@H](OC(=O)NC(=O)CCl)CC[C@]2(CO2)[C@H]1[C@@]1(C)O[C@@H]1CC=C(C)C | – | 0.85 | 0.74 | 0.545 | 0.281 |
| OC(c1ccc(Cl)cc1)(c1cncnc1)c1ccccc1Cl (configuration not stated) [Fenarimol] | 0.885 | 0.819 | 1.18 | 1.13 | 0.347 |
| COP(=O)(OC)SCn1c(=O)oc2cc(Cl)cnc21 [Azamethiphos] | 0.825 | 1.28 | 0.979 | 0.625 | 0.373 |
| Cc1cc(C)nc(Nc2ccccc2)n1 [Pyrimethanil] | 0.991 | 0.979 | 0.894 | 1.13 | 1.14 |
| CCN(CC)C(=O)C(C)Oc1cccc2ccccc12 (configuration not stated) [Napropamide] | 1.25 | 1.3 | 0.968 | 0.96 | 0.438 |
| O=S(=O)([O-])C(F)(F)C(F)(F)C(F)(F)C(F)(F)F.[K+] | – | 1.15 | 1.04 | 1.23 | 1.73 |
| COP(=O)(OC)OC(Br)C(Cl)(Cl)Br (configuration not stated) [Naled] | 0.688 | 0.717 | 0.934 | 0.744 | – |
| CC(C)N1C(=O)N(c2ccccc2)CSC1=NC(C)(C)C [Buprofezin] | 1.25 | 1.69 | 1.16 | 1.12 | 0.27 |
| CC(C)(C)OOC(C)(C)CCC(C)(C)OOC(C)(C)C [2,5-Dimethyl-2,5-di-(tert-butylperoxy)hexane] | – | 1.05 | 0.821 | 1.06 | 1.31 |
| CC(C)=CC1C(C(=O)OCc2coc(Cc3ccccc3)c2)C1(C)C (configuration not stated) [Resmethrin] | 1.06 | 1.07 | 1.19 | 1.16 | 0.31 |
| CCOC(=O)C(O)(c1ccc(Cl)cc1)c1ccc(Cl)cc1 [Chlorobenzilate] | – | 1.14 | 1.09 | 1.05 | 1.09 |
| COC(=O)NC(=S)Nc1ccccc1NC(=S)NC(=O)OC [Thiophanate-methyl] | 1.2 | 1.42 | 1.19 | 1.34 | 0.693 |
| CCCCN(CC)c1c([N+](=O)[O-])cc(C(F)(F)F)cc1[N+](=O)[O-] [Benfluralin] | 0.944 | 1.31 | 0.932 | 1.08 | 1.13 |
| O=C1C2(Cl)C3(Cl)C4(Cl)C(Cl)(Cl)C5(Cl)C3(Cl)C1(Cl)C5(Cl)C24Cl (configuration not stated) [Kepone] | – | 1.34 | 1.09 | 0.965 | 1.01 |
| CC(Oc1ccc(Cl)cc1Cl)C(=O)O (configuration not stated) [Dichlorprop] | 1.16 | 1.21 | 1.22 | 1.24 | 1.32 |
| CCNc1nc(Cl)nc(NC(C)(C)C#N)n1 [Cyanazine] | 0.787 | 0.905 | 0.962 | 0.88 | 1.15 |
| O=C(O)COc1ccc(Cl)cc1Cl [2,4-Dichlorophenoxyacetic acid] | 0.912 | 1.37 | 1.1 | 1.22 | 1.12 |
| O=C([O-])C(F)(F)C(F)(F)C(F)(F)C(F)(F)C(F)(F)C(F)(F)C(F)(F)F.[NH4+] [PFOA, ammonium salt] | – | 1.07 | 0.855 | 1.06 | 0.439 |
| Cc1ccc(N)cc1 [4-Methylaniline] | – | – | – | – | 1.79 |
| CC1(C(=O)Nc2ccc(O)c(Cl)c2Cl)CCCCC1 [Fenhexamid] | 0.803 | 1.11 | 1.06 | 1.23 | 0.352 |
| COc1ccccc1N [2-Anisidine] | – | 1.26 | 1.2 | 1.42 | 1.19 |
| O=C(NC(=O)c1c(F)cccc1F)Nc1ccc(OC(F)(F)C(F)OC(F)(F)F)c(Cl)c1 (configuration not stated) [Novaluron] | 1.04 | 0.973 | 1.04 | 1.02 | 0.941 |
| O=P(Oc1ccccc1)(Oc1ccccc1)Oc1ccccc1 [Triphenyl phosphate] | – | 1.21 | 1.17 | 1.2 | 1.06 |
| CCCCCCCCOC(=O)c1ccc(C(=O)OCCCCCCCC)c(C(=O)OCCCCCCCC)c1 [Trioctyl trimellitate] | – | 1.11 | 1.01 | 1.06 | 1.57 |
| CCCCN(CCCC)SN(C)C(=O)Oc1cccc2c1OC(C)(C)C2 [Carbosulfan] | – | 1.07 | 1.13 | 1.07 | 1.28 |
| N#CC(Br)Br [Dibromoacetonitrile] | – | 1.15 | 1.01 | 1.17 | 1.19 |

2 compounds from above, showing only Wnt reporter firefly/Renilla luciferase ratio (concentration: 100 uM):
Structure (SMILES) | Wnt reporter firefly/Renilla luciferase ratio (concentration: 100 uM)
O=C([O-])C(F)(F)C(F)(F)C(F)(F)C(F)(F)C(F)(F)C(F)(F)C(F)(F)F.[NH4+] [PFOA, ammonium salt] | 0.439
COc1ccccc1N [2-Anisidine] | 1.19
